PubChem BioAssay AID1224826, NIAID – 2016
Screen: 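Knock-downs that raise or lower Tnf reporter signal after endotoxin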 (primary screen). Cell system: RAW264.7 G9 macrophages from mouse bearing reporters for p65 (GFP) and the Tnf promoter (mCherry). Reagents: siRNA pool against mouse genes, 100 nM. Timing: 16 h of LPS stimulation, after 2 days of siRNA transfection. Conditions: bacterial lipopolysaccharide (Salmonella minnesota R595), 10 ng/ml. Read-out: 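Imaged Tnf reporter mCherry in nuclei, minus background, normalised per plate to the median and expressed as robust z-scores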. Reading the numbers: Tnf reporter robust z-score: higher = stronger Tnf promoter reporter signal after LPS. Rule for the call: 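a well counts as active at a score of -1.3 or below (Tlr4 knock-down control median) or above 3 (raised signal); controls and wells holding fewer than 50 cells are excluded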. Calls: active = Tnf reporter clearly lowered or raised; inactive = no clear change in Tnf reporter.
Here is one part, drawn at random, of about 17,000 reagents tested. About 1,110 of them (6.6%) count as active. 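Active means lowered or raised reporter signal; replicate intensities are raw and not normalised per plate.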 The numbers tell different reagents against one gene apart. Further read-outs or replicates are left out here. No sequences are given here.

gene	reagent	Tnf reporter robust z-score	fewer than 50 cells in well	activity call
Sez6l2 (GeneID 233878)	1	0.1	enough cells in well	inactive
Siglecg (GeneID 243958)	1	0.22	enough cells in well	inactive
Wipi2 (GeneID 74781)	1	0.43	enough cells in well	inactive
Actrt1 (GeneID 73360)	1	-0.46	enough cells in well	inactive
Crhr1 (GeneID 12921)	1	0.5	enough cells in well	inactive
Actn2 (GeneID 11472)	1	0.53	enough cells in well	inactive
Kdelr3 (GeneID 105785)	1	0.14	enough cells in well	inactive
Bsn (GeneID 12217)	1	-0.05	enough cells in well	inactive
Hsd17b1 (GeneID 15485)	1	0.09	enough cells in well	inactive
Alx1 (GeneID 216285)	1	-1.23	enough cells in well	inactive
Bmp8b (GeneID 12164)	1	1.49	enough cells in well	inactive
4933436E20Rik (retired record) (GeneID 71202)	1	-0.69	enough cells in well	inactive
Ctnnd2 (GeneID 18163)	1	-0.83	enough cells in well	inactive
Ndufab1 (GeneID 70316)	1	-1.12	enough cells in well	inactive
Or5an1 (GeneID 258680)	1	0.54	enough cells in well	inactive
Or5an1 (GeneID 258680)	2	0.25	enough cells in well	inactive
Baz1a (GeneID 217578)	1	2.17	enough cells in well	inactive
Zfp933 (GeneID 242747)	1	1.66	enough cells in well	inactive
Zfp768 (GeneID 233890)	1	-0.44	enough cells in well	inactive
Utp11 (GeneID 67205)	1	0.22	enough cells in well	inactive
Ttll3 (GeneID 101100)	1	3.58	enough cells in well	active
Lamb2 (GeneID 16779)	1	-0.69	enough cells in well	inactive
Asap1 (GeneID 13196)	1	-0.84	enough cells in well	inactive
Jph4 (GeneID 319984)	1	0.21	enough cells in well	inactive
Zfp322a (GeneID 218100)	1	2.54	enough cells in well	inactive
Vwf (GeneID 22371)	1	-0.44	enough cells in well	inactive
Plcb1 (GeneID 18795)	1	0.59	enough cells in well	inactive
Jmy (GeneID 57748)	1	-0.74	enough cells in well	inactive
Reps1 (GeneID 19707)	1	0.18	enough cells in well	inactive
En1 (GeneID 13798)	1	0.76	enough cells in well	inactive
Havcr2 (GeneID 171285)	1	0.56	enough cells in well	inactive
Ptpn12 (GeneID 19248)	1	-1.39	enough cells in well	active
Cox7c (GeneID 12867)	1	1.09	enough cells in well	inactive
Cstb (GeneID 13014)	1	-0.1	enough cells in well	inactive
Ftcd (GeneID 14317)	1	-0.26	enough cells in well	inactive
Klk1b7-ps (GeneID 16604)	1		fewer than 50 cells per well; well left out of calls	inactive
5930403N24Rik (GeneID 100040846)	1	2.91	enough cells in well	inactive
Suclg1 (GeneID 56451)	1	0.92	enough cells in well	inactive
Ddx52 (GeneID 78394)	1	-0.55	enough cells in well	inactive
Hdhd2 (GeneID 76987)	1	1.74	enough cells in well	inactive
Bace2 (GeneID 56175)	1	0.75	enough cells in well	inactive
4921524J17Rik (GeneID 66714)	1	1.08	enough cells in well	inactive
Map3k21 (GeneID 234878)	1	1.75	enough cells in well	inactive
Snapc4 (GeneID 227644)	1	1.03	enough cells in well	inactive
Loxl4 (GeneID 67573)	1	1.1	enough cells in well	inactive
Rnf183 (GeneID 76072)	1		fewer than 50 cells per well; well left out of calls	inactive
Igflr1 (GeneID 101883)	1	-1.43	enough cells in well	active
Enpp2 (GeneID 18606)	1	0.17	enough cells in well	inactive
Ccdc42 (GeneID 276920)	1	-0.59	enough cells in well	inactive
Skor1 (GeneID 207667)	1	1.21	enough cells in well	inactive
Ube2r2 (GeneID 67615)	1	0.79	enough cells in well	inactive
Crygc (GeneID 12966)	1	-0.95	enough cells in well	inactive
Stx18 (GeneID 71116)	1		fewer than 50 cells per well; well left out of calls	inactive
Gmppa (GeneID 69080)	1	0.85	enough cells in well	inactive
Acvrl1 (GeneID 11482)	1	-1.64	enough cells in well	active
Adora1 (GeneID 11539)	1	-1.43	enough cells in well	active
Srsf3 (GeneID 20383)	1	-1.38	enough cells in well	active
Golga5 (GeneID 27277)	1	-0.44	enough cells in well	inactive
Bnc2 (GeneID 242509)	1	-0.6	enough cells in well	inactive
Maged2 (GeneID 80884)	1	1.27	enough cells in well	inactive
Or4b1c (GeneID 258977)	1	1.61	enough cells in well	inactive
Psmc3 (GeneID 19182)	1		fewer than 50 cells per well; well left out of calls	inactive
Kcnk1 (GeneID 16525)	1	-1.3	enough cells in well	active
Or56b2 (GeneID 258743)	1	1.13	enough cells in well	inactive
Letmd1 (GeneID 68614)	1	1.53	enough cells in well	inactive
Wdr55 (GeneID 67936)	1	-0.97	enough cells in well	inactive
Tuba3a (GeneID 22144)	1	-0.37	enough cells in well	inactive
Dkkl1 (GeneID 50722)	1	0.5	enough cells in well	inactive
Nxf7 (GeneID 170722)	1	-1.12	enough cells in well	inactive
Cwc22 (GeneID 80744)	1	-0.6	enough cells in well	inactive
Osbp2 (GeneID 74309)	1	1.54	enough cells in well	inactive
Clps (GeneID 109791)	1	1.33	enough cells in well	inactive
Gpr153 (GeneID 100129)	1	1.85	enough cells in well	inactive
Dspp (GeneID 666279)	1	-0.67	enough cells in well	inactive
Xtbd1 (GeneID 52626)	1	-1.67	enough cells in well	active

5 neighbouring entries already listed:
gene	reagent	Tnf reporter robust z-score	fewer than 50 cells in well	activity call
Actrt1 (GeneID 73360)	1	-0.46	enough cells in well	inactive
Crhr1 (GeneID 12921)	1	0.5	enough cells in well	inactive
Actn2 (GeneID 11472)	1	0.53	enough cells in well	inactive
Kdelr3 (GeneID 105785)	1	0.14	enough cells in well	inactive
Bsn (GeneID 12217)	1	-0.05	enough cells in well	inactive
